Some of the results follow. The calls rarely recur for the same compound in another form.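 Kinases were expressed as nanoluciferase fusions in K562 cells and luminescence was read every 4 h between 2 and 18 h as percent of control, DMSO set to 100% and a positive control to 0%. A time point counts as decreased when the signal drops significantly (2 sigma). The hit call is the authors' own, does not follow from the count of time points alone, and its rule is not shown.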
Key:
Test in all cases: kinase-Nluc reporter destabilization hit call (1 = scored as downregulated) (binary); higher = compound decreases kinase abundance
Details in all cases: K562; 2-18 h
MAPK1 = MAPK1 (UniProt P28482)
MAPK4 = MAPK4 (UniProt P31152)
MAPKAPK2 = MAPKAPK2 (UniProt P49137)
MKNK1 = MKNK1 (UniProt Q9BUB5)
NTRK2 = NTRK2 (UniProt Q16620)
NTRK3 = NTRK3 (UniProt Q16288)
PAK4 = PAK4 (UniProt O96013)
PBK = PBK (UniProt Q96KB5)
PDGFRB = PDGFRB (UniProt P09619)
PDK1 = PDK1 (UniProt Q15118)

The chains behind the UniProt entries cited, without tags or fusion partners. Where a name states a change or a piece, a line headed by the entry shows the natural chain unless it says otherwise.
UniProt P28482, whole entry: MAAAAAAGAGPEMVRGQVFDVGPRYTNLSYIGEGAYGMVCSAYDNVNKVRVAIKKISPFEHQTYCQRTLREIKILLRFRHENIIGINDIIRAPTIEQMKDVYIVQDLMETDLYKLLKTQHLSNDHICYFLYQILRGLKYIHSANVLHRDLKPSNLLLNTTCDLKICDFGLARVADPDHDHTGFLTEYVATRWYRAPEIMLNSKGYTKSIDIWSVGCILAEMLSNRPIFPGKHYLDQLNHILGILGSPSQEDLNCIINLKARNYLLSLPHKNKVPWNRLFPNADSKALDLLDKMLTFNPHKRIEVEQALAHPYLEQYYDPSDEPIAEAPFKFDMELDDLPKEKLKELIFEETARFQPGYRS
UniProt P31152, whole entry: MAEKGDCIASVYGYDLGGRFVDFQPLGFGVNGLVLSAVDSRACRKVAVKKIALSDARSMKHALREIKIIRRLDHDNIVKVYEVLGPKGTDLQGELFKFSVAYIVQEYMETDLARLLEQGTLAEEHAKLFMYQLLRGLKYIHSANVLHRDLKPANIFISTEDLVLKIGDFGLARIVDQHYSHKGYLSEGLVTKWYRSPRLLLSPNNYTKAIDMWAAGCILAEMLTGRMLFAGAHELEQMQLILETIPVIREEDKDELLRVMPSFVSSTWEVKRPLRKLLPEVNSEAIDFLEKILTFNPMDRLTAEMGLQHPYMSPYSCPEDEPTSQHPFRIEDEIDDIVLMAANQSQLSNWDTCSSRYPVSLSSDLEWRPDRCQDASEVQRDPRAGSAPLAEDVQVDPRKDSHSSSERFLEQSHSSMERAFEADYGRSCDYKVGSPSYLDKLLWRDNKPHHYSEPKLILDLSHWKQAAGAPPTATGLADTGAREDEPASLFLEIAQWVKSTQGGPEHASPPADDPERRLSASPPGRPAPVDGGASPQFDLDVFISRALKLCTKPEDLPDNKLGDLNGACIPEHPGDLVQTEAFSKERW
UniProt P49137, whole entry, looked up: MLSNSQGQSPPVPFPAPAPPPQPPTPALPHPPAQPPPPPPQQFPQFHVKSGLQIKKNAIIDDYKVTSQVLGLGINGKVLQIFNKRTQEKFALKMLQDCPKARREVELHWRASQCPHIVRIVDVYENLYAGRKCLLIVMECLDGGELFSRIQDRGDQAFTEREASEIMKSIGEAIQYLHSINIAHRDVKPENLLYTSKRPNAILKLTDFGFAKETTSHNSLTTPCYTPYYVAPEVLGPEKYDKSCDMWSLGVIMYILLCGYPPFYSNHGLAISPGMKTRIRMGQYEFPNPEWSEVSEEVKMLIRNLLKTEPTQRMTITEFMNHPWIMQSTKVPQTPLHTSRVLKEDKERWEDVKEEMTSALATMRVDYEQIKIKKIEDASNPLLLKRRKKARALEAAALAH
UniProt Q9BUB5: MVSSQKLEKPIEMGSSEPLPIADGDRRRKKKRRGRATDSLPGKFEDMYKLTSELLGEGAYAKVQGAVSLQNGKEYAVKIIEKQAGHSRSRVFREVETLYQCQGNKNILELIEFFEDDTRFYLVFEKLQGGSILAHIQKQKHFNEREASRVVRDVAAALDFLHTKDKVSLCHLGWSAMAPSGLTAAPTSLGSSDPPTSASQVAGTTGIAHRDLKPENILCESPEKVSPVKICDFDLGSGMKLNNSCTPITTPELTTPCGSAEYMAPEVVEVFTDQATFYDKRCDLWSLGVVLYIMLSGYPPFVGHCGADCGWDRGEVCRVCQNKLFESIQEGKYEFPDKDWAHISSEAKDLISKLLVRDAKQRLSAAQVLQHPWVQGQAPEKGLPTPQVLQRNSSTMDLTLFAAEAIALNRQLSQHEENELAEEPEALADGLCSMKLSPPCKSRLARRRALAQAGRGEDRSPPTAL
UniProt Q16620, whole entry, looked up: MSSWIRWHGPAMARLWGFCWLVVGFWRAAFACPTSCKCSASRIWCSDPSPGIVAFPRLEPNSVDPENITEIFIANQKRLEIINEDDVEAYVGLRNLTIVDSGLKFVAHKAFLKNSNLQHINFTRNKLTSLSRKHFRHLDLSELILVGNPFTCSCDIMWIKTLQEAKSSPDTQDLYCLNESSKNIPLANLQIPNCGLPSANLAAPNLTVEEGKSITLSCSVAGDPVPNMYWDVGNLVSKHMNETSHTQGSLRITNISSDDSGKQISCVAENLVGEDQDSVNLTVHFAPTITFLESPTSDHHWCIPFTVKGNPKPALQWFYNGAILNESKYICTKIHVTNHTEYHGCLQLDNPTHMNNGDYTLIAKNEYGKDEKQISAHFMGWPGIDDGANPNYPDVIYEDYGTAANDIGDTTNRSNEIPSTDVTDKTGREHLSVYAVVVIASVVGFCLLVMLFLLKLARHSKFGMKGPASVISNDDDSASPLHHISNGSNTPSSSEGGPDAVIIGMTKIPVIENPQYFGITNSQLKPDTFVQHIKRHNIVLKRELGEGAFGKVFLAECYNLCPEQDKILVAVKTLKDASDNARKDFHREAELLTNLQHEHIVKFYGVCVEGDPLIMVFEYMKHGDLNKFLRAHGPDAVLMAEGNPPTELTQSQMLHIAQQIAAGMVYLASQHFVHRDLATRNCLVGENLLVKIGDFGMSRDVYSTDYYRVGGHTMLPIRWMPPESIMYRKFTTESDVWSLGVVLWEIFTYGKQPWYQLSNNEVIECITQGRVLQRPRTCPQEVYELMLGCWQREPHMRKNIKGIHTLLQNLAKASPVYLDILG
UniProt Q16288, whole entry, looked up: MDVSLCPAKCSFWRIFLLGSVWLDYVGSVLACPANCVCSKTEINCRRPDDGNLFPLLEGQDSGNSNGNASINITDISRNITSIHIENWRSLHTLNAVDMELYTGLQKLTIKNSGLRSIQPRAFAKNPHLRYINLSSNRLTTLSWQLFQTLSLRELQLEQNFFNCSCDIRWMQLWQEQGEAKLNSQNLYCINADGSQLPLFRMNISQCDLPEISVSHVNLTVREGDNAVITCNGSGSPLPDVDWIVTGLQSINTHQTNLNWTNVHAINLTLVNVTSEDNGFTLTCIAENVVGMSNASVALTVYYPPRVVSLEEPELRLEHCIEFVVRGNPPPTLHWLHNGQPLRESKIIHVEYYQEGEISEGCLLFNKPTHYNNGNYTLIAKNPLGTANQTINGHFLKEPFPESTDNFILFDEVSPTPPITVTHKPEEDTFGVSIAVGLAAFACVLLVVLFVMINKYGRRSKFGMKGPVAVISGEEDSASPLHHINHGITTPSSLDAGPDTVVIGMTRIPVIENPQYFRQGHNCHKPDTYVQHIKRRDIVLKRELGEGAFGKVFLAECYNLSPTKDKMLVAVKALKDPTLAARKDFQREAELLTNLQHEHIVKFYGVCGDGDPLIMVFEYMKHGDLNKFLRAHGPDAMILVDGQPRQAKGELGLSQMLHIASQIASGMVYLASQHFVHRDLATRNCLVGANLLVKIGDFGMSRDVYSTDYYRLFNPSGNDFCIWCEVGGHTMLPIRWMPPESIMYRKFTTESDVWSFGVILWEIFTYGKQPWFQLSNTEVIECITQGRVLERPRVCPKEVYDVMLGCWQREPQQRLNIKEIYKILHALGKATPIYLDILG
UniProt O96013: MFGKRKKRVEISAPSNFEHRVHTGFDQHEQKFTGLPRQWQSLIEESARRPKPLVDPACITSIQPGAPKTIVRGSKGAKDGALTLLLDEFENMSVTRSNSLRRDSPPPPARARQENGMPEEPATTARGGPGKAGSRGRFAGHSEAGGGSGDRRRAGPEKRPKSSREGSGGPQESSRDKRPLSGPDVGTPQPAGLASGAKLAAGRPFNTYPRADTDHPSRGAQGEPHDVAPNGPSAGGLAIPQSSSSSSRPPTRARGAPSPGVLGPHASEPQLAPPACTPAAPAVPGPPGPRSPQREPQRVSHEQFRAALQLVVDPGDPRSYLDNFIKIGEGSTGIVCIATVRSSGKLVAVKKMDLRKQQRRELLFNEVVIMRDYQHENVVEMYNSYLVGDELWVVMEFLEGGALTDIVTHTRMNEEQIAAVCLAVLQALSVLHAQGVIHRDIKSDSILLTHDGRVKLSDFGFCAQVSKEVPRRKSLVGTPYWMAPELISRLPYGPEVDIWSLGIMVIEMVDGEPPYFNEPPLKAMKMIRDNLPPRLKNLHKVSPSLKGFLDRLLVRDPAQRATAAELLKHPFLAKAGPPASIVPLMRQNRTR
UniProt Q96KB5: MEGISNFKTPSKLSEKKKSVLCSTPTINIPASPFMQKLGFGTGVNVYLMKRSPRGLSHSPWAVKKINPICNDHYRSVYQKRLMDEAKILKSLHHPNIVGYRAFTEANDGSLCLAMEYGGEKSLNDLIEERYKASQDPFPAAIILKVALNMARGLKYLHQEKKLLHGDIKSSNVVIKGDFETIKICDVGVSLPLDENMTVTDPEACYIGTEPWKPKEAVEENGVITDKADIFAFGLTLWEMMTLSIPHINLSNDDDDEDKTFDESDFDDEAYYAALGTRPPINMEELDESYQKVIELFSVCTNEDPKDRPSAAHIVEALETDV
UniProt P09619, whole entry: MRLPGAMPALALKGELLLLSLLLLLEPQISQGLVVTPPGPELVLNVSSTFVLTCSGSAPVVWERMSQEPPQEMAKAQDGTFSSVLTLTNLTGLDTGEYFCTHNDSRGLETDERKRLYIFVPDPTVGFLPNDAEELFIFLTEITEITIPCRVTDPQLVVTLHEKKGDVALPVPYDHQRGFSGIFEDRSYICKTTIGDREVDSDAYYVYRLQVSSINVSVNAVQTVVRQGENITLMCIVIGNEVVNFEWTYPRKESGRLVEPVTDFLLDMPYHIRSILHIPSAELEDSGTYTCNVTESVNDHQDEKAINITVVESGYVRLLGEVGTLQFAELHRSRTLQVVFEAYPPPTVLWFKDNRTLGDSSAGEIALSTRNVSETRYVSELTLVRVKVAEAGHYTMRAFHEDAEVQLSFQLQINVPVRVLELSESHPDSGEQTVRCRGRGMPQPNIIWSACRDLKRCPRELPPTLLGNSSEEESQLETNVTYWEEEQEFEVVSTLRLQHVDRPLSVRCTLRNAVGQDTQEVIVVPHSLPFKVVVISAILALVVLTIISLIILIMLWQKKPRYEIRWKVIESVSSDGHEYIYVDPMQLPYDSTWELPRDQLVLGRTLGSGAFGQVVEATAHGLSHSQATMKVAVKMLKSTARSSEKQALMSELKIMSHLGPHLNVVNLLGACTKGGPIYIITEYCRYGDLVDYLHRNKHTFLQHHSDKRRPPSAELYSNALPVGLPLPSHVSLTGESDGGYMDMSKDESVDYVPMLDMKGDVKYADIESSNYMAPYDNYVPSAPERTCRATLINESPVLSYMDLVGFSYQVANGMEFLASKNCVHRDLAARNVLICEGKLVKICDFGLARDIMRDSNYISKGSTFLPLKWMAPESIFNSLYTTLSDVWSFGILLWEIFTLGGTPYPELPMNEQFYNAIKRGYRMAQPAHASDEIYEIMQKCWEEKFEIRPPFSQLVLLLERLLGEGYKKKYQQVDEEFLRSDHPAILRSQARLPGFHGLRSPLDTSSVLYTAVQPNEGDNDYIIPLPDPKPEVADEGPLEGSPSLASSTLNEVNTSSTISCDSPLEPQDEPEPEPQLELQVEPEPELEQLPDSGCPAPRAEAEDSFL
UniProt Q15118, whole entry, looked up: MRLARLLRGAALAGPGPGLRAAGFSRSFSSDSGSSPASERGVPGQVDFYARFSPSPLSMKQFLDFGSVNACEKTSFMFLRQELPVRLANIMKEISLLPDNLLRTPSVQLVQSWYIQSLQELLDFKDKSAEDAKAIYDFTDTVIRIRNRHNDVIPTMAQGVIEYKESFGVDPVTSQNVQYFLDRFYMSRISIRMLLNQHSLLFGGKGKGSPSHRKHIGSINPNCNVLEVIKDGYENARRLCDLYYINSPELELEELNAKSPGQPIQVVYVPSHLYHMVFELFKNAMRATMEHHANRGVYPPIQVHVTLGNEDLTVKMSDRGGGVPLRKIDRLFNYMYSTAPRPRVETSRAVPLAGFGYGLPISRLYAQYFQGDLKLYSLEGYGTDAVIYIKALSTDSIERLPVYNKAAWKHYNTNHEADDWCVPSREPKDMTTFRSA

Measured: kinase-Nluc reporter destabilization hit call

COc1ncc(Nc2ncc([C@@H](C)N3CCN(S(C)(=O)=O)CC3)cc2-c2nc(C)nc(N)n2)cc1F (10 µM)
inactive: MAPK1 = 0 | MAPK4 = 0 | MAPKAPK2 = 0 | MKNK1 = 0 | NTRK2 = 0 | NTRK3 = 0 | PAK4 = 0 | PBK 0 | PDGFRB 0 | PDK1 = 0

Cc1cc2cc(Oc3ccnc(Nc4cccc(CS(=O)(=O)NCCN(C)C)c4)n3)ccc2[nH]1 [Sulfatinib] (10 µM)
inactive: MAPK1 = 0 | MAPK4 = 0 | MAPKAPK2 = 0 | MKNK1 = 0 | NTRK2 = 0 | NTRK3 = 0 | PAK4 = 0 | PBK 0 | PDGFRB 0 | PDK1 = 0

CN(C)C(=O)c1ccc(S(=O)(=O)c2ccc(NC(=O)[C@@](C)(O)C(F)(F)F)c(Cl)c2)cc1 (10 µM)
inactive: MAPK1 = 0 | MAPK4 = 0 | MAPKAPK2 = 0 | MKNK1 = 0 | NTRK2 = 0 | NTRK3 = 0 | PAK4 = 0 | PBK 0 | PDGFRB 0 | PDK1 = 0

COc1ccc(CCNc2ncc3c(=O)n(-c4cccc(F)c4)c(=O)[nH]c3n2)cc1OC (2 µM)
inactive: MAPK1 = 0 | MAPK4 = 0 | MAPKAPK2 = 0 | MKNK1 = 0 | NTRK2 = 0 | NTRK3 = 0 | PAK4 = 0 | PBK 0 | PDGFRB 0 | PDK1 = 0

CCN1/C(=C/C(C)=O)Sc2ccc(OC)cc21 (10 µM)
inactive: MAPK1 = 0 | MAPK4 = 0 | MAPKAPK2 = 0 | MKNK1 = 0 | NTRK2 = 0 | NTRK3 = 0 | PAK4 = 0 | PBK 0 | PDGFRB 0 | PDK1 = 0

COC1(C(=O)N[C@@H](C)c2ccc(-n3cc(F)cn3)nc2)CCC(c2nc(C)cc(Nc3cc(C)[nH]n3)n2)CC1 (stereo partly drawn) [trans-Pralsetinib] (2.5 µM)
inactive: MAPK1 = 0 | MAPK4 = 0 | MAPKAPK2 = 0 | MKNK1 = 0 | NTRK2 = 0 | NTRK3 = 0 | PAK4 = 0 | PBK 0 | PDGFRB 0 | PDK1 = 0

Cn1cc(-c2cc3c(N4CCN(c5ncc([C@@](C)(N)c6ccc(F)cc6)cn5)CC4)ncnn3c2)cn1 [Avapritinib] (2.5 µM)
inactive: MAPK1 = 0 | MAPK4 = 0 | MAPKAPK2 = 0 | MKNK1 = 0 | NTRK2 = 0 | NTRK3 = 0 | PAK4 = 0 | PBK 0 | PDGFRB 0 | PDK1 = 0

Cc1cnc(Nc2ccc(N3CCN(C)CC3)cc2)nc1Nc1cccc(S(=O)(=O)NC(C)(C)C)c1 (2.5 µM)
inactive: MAPK1 = 0 | MAPK4 = 0 | MAPKAPK2 = 0 | MKNK1 = 0 | NTRK2 = 0 | NTRK3 = 0 | PAK4 = 0 | PBK 0 | PDGFRB 0 | PDK1 = 0

COc1ccc2c(c1OC)OC1c3ccc(O)cc3OCC21 (stereo not given) [Methylnissolin] (10 µM)
inactive: MAPK1 = 0 | MAPK4 = 0 | MAPKAPK2 = 0 | MKNK1 = 0 | NTRK2 = 0 | NTRK3 = 0 | PAK4 = 0 | PBK 0 | PDGFRB 0 | PDK1 = 0

C=CC(=O)Nc1cccc(Oc2nc(Nc3ccc(N4CCN(C)CC4)cc3)nc3ccoc23)c1 [Poseltinib] (10 µM)
inactive: MAPK1 = 0 | MAPK4 = 0 | MAPKAPK2 = 0 | MKNK1 = 0 | NTRK2 = 0 | NTRK3 = 0 | PAK4 = 0 | PBK 0 | PDGFRB 0 | PDK1 = 0

COc1ccc(CN2C3CC2CN(c2ccc(-c4cc(OCC(C)(C)O)cn5ncc(C#N)c45)cn2)C3)cn1 [Selpercatinib] (10 µM)
inactive: MAPK1 = 0 | MAPK4 = 0 | MAPKAPK2 = 0 | MKNK1 = 0 | NTRK2 = 0 | NTRK3 = 0 | PAK4 = 0 | PBK 0 | PDGFRB 0 | PDK1 = 0

CCOc1ccccc1C=C1C(=O)Nc2ccccc21 (10 µM)
inactive: MAPK1 = 0 | MAPK4 = 0 | MAPKAPK2 = 0 | MKNK1 = 0 | NTRK2 = 0 | NTRK3 = 0 | PAK4 = 0 | PBK 0 | PDGFRB 0 | PDK1 = 0

CCC(C)(C)C(=O)N(O)Cc1ccccc1 (10 µM)
inactive: MAPK1 = 0 | MAPK4 = 0 | MAPKAPK2 = 0 | MKNK1 = 0 | NTRK2 = 0 | NTRK3 = 0 | PAK4 = 0 | PBK 0 | PDGFRB 0 | PDK1 = 0

CNC(=O)c1cc(Oc2ccc3nc(N[C@@H]4CCCC[C@H]4O)sc3c2)ccn1 (10 µM)
inactive: MAPK1 = 0 | MAPK4 = 0 | MAPKAPK2 = 0 | MKNK1 = 0 | NTRK2 = 0 | NTRK3 = 0 | PAK4 = 0 | PBK 0 | PDGFRB 0 | PDK1 = 0

C[C@H]1[C@H](OC(=O)CCC(=O)O)O[C@@H]2O[C@@]3(C)CC[C@H]4[C@H](C)CC[C@@H]1[C@@]24OO3 [Artesunate] (2.5 µM)
inactive: MAPK1 = 0 | MAPK4 = 0 | MAPKAPK2 = 0 | MKNK1 = 0 | NTRK2 = 0 | NTRK3 = 0 | PAK4 = 0 | PBK 0 | PDGFRB 0 | PDK1 = 0

CCOC(=O)c1c2c3c(cccc3[nH]c1=O)C(=O)c1ccccc1-2 (10 µM)
inactive: MAPK1 = 0 | MAPK4 = 0 | MAPKAPK2 = 0 | MKNK1 = 0 | NTRK2 = 0 | NTRK3 = 0 | PAK4 = 0 | PBK 0 | PDGFRB 0 | PDK1 = 0

CN1C(=O)NC(Cc2c[nH]c3c(Cl)cccc23)C1=O (racemic) [Necrostatin 2 (racemate)] (10 µM)
inactive: MAPK1 = 0 | MAPK4 = 0 | MAPKAPK2 = 0 | MKNK1 = 0 | NTRK2 = 0 | NTRK3 = 0 | PAK4 = 0 | PBK 0 | PDGFRB 0 | PDK1 = 0

C[C@@H]1COCCN1c1cc(=O)n2c(n1)N(Cc1cncc(Cl)c1)[C@H](C(F)(F)F)CC2 (10 µM)
inactive: MAPK1 = 0 | MAPK4 = 0 | MAPKAPK2 = 0 | MKNK1 = 0 | NTRK2 = 0 | NTRK3 = 0 | PAK4 = 0 | PBK 0 | PDGFRB 0 | PDK1 = 0

O=c1nc(N2CCOCC2)oc2c(-c3cccc4c3sc3ccccc34)cccc12 (10 µM)
inactive: MAPK1 = 0 | MAPK4 = 0 | MAPKAPK2 = 0 | MKNK1 = 0 | NTRK2 = 0 | NTRK3 = 0 | PAK4 = 0 | PBK 0 | PDGFRB 0 | PDK1 = 0

Cc1ccc(-c2ccc3c(ccc4sc5c(c43)NC[C@@H](C)NC5=O)n2)cn1 (10 µM)
inactive: MAPK1 = 0 | MAPK4 = 0 | MAPKAPK2 = 0 | MKNK1 = 0 | NTRK2 = 0 | NTRK3 = 0 | PAK4 = 0 | PBK 0 | PDGFRB 0 | PDK1 = 0

Cn1cc(-c2ccc(F)c(C(F)(F)F)c2)nc1C1CCN(c2ncnc3[nH]ncc23)CC1 (10 µM)
inactive: MAPK1 = 0 | MAPK4 = 0 | MAPKAPK2 = 0 | MKNK1 = 0 | NTRK2 = 0 | NTRK3 = 0 | PAK4 = 0 | PBK 0 | PDGFRB 0 | PDK1 = 0

Cc1ccc(-c2ncn(-c3ccc(Nc4nccc(-c5cccc(N6CCOCC6)c5)n4)cc3)n2)cn1 (10 µM)
inactive: MAPK1 = 0 | MAPK4 = 0 | MAPKAPK2 = 0 | MKNK1 = 0 | NTRK2 = 0 | NTRK3 = 0 | PAK4 = 0 | PBK 0 | PDGFRB 0 | PDK1 = 0

COc1cc2ncnc(Nc3ccc(NC(=O)c4ccccc4)cc3)c2cc1OC [Aurora kinase inhibitor-2] (2.5 µM)
inactive: MAPK1 = 0 | MAPK4 = 0 | MAPKAPK2 = 0 | MKNK1 = 0 | NTRK2 = 0 | NTRK3 = 0 | PAK4 = 0 | PBK 0 | PDGFRB 0 | PDK1 = 0

COc1cnccc1Nc1nc(-c2nn(Cc3c(F)cc(OCCO)cc3F)c3ccccc23)ncc1OC (10 µM)
inactive: MAPK1 = 0 | MAPK4 = 0 | MAPKAPK2 = 0 | MKNK1 = 0 | NTRK2 = 0 | NTRK3 = 0 | PAK4 = 0 | PBK 0 | PDGFRB 0 | PDK1 = 0

CC(C)(C)c1cc(C(c2cc3c(cc2O)OCO3)N2CCOCC2)cc(C(C)(C)C)c1O (stereo not given) (2.5 µM)
inactive: MAPK1 = 0 | MAPK4 = 0 | MAPKAPK2 = 0 | MKNK1 = 0 | NTRK2 = 0 | NTRK3 = 0 | PAK4 = 0 | PBK 0 | PDGFRB 0 | PDK1 = 0

Ordered by SMILES length (low to high): part of the list above
Cc1ccc(-c2ccc3c(ccc4sc5c(c43)NC[C@@H](C)NC5=O)n2)cn1 (10 µM)
inactive: MAPK1 = 0 | MAPK4 = 0 | MAPKAPK2 = 0 | MKNK1 = 0 | NTRK2 = 0 | NTRK3 = 0 | PAK4 = 0 | PBK 0 | PDGFRB 0 | PDK1 = 0

C=CC(=O)Nc1cccc(Oc2nc(Nc3ccc(N4CCN(C)CC4)cc3)nc3ccoc23)c1 [Poseltinib] (10 µM)
inactive: MAPK1 = 0 | MAPK4 = 0 | MAPKAPK2 = 0 | MKNK1 = 0 | NTRK2 = 0 | NTRK3 = 0 | PAK4 = 0 | PBK 0 | PDGFRB 0 | PDK1 = 0

Cc1ccc(-c2ncn(-c3ccc(Nc4nccc(-c5cccc(N6CCOCC6)c5)n4)cc3)n2)cn1 (10 µM)
inactive: MAPK1 = 0 | MAPK4 = 0 | MAPKAPK2 = 0 | MKNK1 = 0 | NTRK2 = 0 | NTRK3 = 0 | PAK4 = 0 | PBK 0 | PDGFRB 0 | PDK1 = 0

(cont.)

OCCN(CCO)c1ccc(C(c2ccc(Cl)cc2)c2ccc(N(CCO)CCO)cc2)cc1 (10 µM)
inactive: MAPK1 = 0 | MAPK4 = 0 | MAPKAPK2 = 0 | MKNK1 = 0 | NTRK2 = 0 | NTRK3 = 0 | PAK4 = 0 | PBK 0 | PDGFRB 0 | PDK1 = 0

Fc1c(Br)cccc1Nc1ncnc2cc3c(cc12)OCCO3 (2.5 µM)
inactive: MAPK1 = 0 | MAPK4 = 0 | MAPKAPK2 = 0 | MKNK1 = 0 | NTRK2 = 0 | NTRK3 = 0 | PAK4 = 0 | PBK 0 | PDGFRB 0 | PDK1 = 0

Cc1cc(Nc2nc(N[C@@H](C)c3ncc(F)cn3)ncc2Cl)[nH]n1 (10 µM)
inactive: MAPK1 = 0 | MAPK4 = 0 | MAPKAPK2 = 0 | MKNK1 = 0 | NTRK2 = 0 | NTRK3 = 0 | PAK4 = 0 | PBK 0 | PDGFRB 0 | PDK1 = 0

COc1ccc(CNc2nc(N(CCO)CCO)nc3c2ncn3C(C)C)cc1 (2.5 µM)
inactive: MAPK1 = 0 | MAPK4 = 0 | MAPKAPK2 = 0 | MKNK1 = 0 | NTRK2 = 0 | NTRK3 = 0 | PAK4 = 0 | PBK 0 | PDGFRB 0 | PDK1 = 0
